The values that follow come from publication PMC10899256.

Chains of the proteins cited; added tags and fusions are not shown. Lines headed by an entry give the natural chain unless they say otherwise; changes in a name come on top. A line that says so, or that is headed by a name, gives the form on record, which may keep a tag or linker.
GST-TBC1D23 (full-length TBC1D23, 1–684) (Q9NUY8, form named): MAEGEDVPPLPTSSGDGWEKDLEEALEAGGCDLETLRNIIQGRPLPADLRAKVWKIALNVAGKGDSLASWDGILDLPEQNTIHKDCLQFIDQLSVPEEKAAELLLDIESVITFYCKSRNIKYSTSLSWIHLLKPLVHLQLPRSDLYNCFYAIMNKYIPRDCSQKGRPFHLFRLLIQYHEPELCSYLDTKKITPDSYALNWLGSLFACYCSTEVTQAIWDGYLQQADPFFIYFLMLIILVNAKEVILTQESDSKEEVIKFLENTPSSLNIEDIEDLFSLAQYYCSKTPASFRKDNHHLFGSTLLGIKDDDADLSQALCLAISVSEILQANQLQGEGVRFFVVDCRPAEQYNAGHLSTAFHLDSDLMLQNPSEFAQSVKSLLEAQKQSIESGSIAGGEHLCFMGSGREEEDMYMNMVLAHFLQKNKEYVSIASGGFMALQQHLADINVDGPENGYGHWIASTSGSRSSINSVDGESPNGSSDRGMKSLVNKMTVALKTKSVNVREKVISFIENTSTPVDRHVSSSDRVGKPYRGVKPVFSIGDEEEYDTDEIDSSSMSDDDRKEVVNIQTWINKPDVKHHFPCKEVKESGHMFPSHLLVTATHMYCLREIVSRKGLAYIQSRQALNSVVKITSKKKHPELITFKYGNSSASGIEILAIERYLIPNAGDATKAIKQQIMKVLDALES

The target of the experiment is GST-TBC1D23 (full-length TBC1D23, 1–684) (human) (UniProt Q9NUY8). Briefly: affinity purification with mass spectrometry; GST-TBC1D23 versus GST vector in transfected HEK293T; NETN buffer, GST beads 2 h at 4 °C, eluted with 10 mM GSH, SDS-PAGE, in-gel trypsin digest, LC-MS/MS.

No constants are given. Whether binding was seen depends on the method and setting. Binding seen in cells or lysates may run through a third protein. Here binding means that the protein was enriched with, or labelled near, the bait; the list need not be complete.

B1: golgin-97, endogenous in HEK293T (protein, UniProt Q92805 1-767)
chain: MFAKLKKKIAEETAVAQRPGGATRIPRSVSKESVASMGADSGDDFASDGSSSREDLSSQLLRRNEQIRKLEARLSDYAEQVRNLQKIKEKLEIALEKHQDSSMRKFQEQNETFQANRAKMAEGLALALARKDQEWSEKMDQLEKEKNILTAQLQEMKNQSMNLFQRRDEMDELEGFQQQELSKIKHMLLKKEESLGKMEQELEARTRELSRTQEELMNSNQMSSDLSQKLEELQRHYSTLEEQRDHVIASKTGAESKITALEQKEQELQALIQQLSIDLQKVTAETQEKEDVITHLQEKVASLEKRLEQNLSGEEHLQELLKEKTLAEQNLEDTRQQLLAARSSQAKAINTLETRVRELEQTLQASEEQLQQSKGIVAAQETQIQELAAANQESSHVQQQALALEQQFLERTQALEAQIVALERTRAADQTTAEQGMRQLEQENAALKECRNEYERSLQNHQFELKKLKEEWSQREIVSVAMAQALEEVRKQREEFQQQAANLTAIIDEKEQNLREKTEVLLQKEQEILQLERGHNSALLQIHQLQAELEALRTLKAEEAAVVAEQEDLLRLRGPLQAEALSVNESHVTSRAMQDPVFQLPTAGRTPNGEVGAMDLTQLQKEKQDLEQQLLEKNKTIKQMQQRMLELRKTLQKELKIRPDNELFEVREKPGPEMANMAPSVTNNTDLTDAREINFEYLKHVVLKFMSCRESEAFHLIKAVSVLLNFSQEEENMLKETLEYKMSWFGSKPAPKGSIRPSISNPRIPWS
In the case of B1, the binding result is “binds”.
